Reference: patent US5723747A, “Wax esters in transformed plants” (Calgene, Inc., priority 1994, dated 1998)
For at least one compound, name, drawing or mass did not settle the structure.

Sequences of proteins named here, by UniProt entry; tags and fusion partners are left off.
UniProt Q9XGY7, whole entry S459G: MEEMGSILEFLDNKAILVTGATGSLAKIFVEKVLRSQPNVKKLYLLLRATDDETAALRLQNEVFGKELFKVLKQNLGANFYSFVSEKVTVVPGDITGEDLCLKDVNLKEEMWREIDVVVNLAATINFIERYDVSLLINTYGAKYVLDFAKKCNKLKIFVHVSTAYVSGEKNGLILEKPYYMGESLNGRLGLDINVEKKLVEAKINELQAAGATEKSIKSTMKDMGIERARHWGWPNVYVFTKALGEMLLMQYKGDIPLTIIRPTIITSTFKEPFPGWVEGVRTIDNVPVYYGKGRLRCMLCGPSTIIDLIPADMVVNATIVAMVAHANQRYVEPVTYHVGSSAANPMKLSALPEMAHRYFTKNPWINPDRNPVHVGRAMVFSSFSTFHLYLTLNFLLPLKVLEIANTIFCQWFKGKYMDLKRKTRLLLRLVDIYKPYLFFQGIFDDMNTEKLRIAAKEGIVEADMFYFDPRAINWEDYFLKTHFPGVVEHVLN

Target: jojoba acyl-CoA reductase (Simmondsia chinensis, UniProt Q9XGY7, S459G)
Protocol: […] The incubation mixture also contains 10% w/v glycerol, 1 mM DTT, and is buffered with 50 mM HEPES (4-[2-hydroxyethyl]-1-piperazineethane-sulfonic acid) (HEPES, here and as referred to hereafter is added from a 1M stock solution adjusted to pH 7.5).
[…] The assay is terminated by placing the assay tube on ice and immediately adding 0.25 ml isopropanol:acetic acid (5:1 v/v). Unlabeled wax esters (0.1 mg) and oleyl alcohol (0.1 mg) are added as carriers. The [^14 C] lipids are extracted by the scaled-down protocol of Hara and Radin (Anal. Biochem. (1978) 90:420). Six ml of hexane/isopropanol (3:2, v/v) is added to the terminated assay. The sample is vortexed, 2 ml of aqueous sodium sulphate solution (5.5% w/v) is added, and the sample is again vortexed. […]
Following addition of the sodium sulphate and vortexing the sample, the upper organic phase is removed and the lower aqueous phase is washed with 4 ml hexane/isopropanol (7:2 v/v). […] The lipid residue is resuspended in a small volume of heptane, and an aliquot is assayed for radioactivity by liquid scintillation counting. […]
Following addition of the sodium sulfate and vortexing the sample, a known percentage of the organic phase is removed and counted via liquid scintillation counting. […]

## CCCCCCCCCCCCCCCC(=O)SCCNC(=O)CCNC(=O)[C@H](O)C(C)(C)COP(=O)(O)OP(=O)(O)OC[C@H]1O[C@@H](n2cnc3c(N)ncnc32)[C@H](O)[C@@H]1OP(=O)(O)O [16:0, palmitoyl-CoA]
  inhibitory effect on jojoba acyl-CoA reductase activity (in words): effective inhibitor
